Data taken from paper PMC9852244.
These are yes or no findings as the source states them, for the method shown. In cells and extracts the contact can be indirect. Some binding calls cover weakened binding; strength is not graded here. For some of these results: Tags and fused reporters may be left off the sequences shown.

By UniProt entry, the sequences of proteins in these tests, tags left out.
UniProt Q9QZL0: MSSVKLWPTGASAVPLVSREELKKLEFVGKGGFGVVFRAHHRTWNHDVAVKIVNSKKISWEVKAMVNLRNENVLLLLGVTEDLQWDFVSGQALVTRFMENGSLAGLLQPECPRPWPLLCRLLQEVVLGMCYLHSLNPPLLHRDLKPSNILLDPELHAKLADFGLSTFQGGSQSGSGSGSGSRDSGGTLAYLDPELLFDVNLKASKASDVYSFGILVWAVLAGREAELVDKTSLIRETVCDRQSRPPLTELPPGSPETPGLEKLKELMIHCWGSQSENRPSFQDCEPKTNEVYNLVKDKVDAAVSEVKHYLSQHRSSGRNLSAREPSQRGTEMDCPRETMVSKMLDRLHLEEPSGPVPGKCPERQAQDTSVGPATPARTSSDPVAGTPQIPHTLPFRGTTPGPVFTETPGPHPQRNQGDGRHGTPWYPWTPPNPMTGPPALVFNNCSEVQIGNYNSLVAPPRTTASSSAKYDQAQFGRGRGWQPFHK
UniProt O14744: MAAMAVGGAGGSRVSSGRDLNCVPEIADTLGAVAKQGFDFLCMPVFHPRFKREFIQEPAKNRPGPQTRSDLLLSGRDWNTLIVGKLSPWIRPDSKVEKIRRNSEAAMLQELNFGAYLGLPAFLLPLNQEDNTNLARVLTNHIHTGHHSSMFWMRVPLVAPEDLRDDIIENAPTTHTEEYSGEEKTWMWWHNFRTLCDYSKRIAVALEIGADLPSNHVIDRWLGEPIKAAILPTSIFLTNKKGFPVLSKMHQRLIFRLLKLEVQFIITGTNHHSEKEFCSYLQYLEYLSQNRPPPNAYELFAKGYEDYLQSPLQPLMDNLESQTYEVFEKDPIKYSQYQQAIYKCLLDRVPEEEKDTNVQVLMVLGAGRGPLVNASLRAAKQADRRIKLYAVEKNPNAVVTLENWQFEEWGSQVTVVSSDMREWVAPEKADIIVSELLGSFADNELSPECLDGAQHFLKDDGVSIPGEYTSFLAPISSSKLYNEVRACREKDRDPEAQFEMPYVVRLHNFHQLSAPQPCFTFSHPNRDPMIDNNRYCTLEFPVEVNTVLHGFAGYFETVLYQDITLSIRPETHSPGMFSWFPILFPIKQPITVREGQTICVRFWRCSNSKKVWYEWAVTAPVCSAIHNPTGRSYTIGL

What was measured:
Assay in all cases: pull-down; GST-pulldown on glutathione agarose (16 h, 4 °C, beads blocked with 1% BSA) from lysates of HEK293T cells co-transfected with FLAG-PRMT5 and GST-tagged bait; immunoblot; also with Nec-1 treatment of the cells
[1] = molecular target: GST-tagged mouse RIPK3 (mouse) (UniProt Q9QZL0)
[2] = molecular target: T1, GST-tagged full-length mRIPK1 (1-656 aa) (mouse) (UniProt Q60855)
T1 sequence: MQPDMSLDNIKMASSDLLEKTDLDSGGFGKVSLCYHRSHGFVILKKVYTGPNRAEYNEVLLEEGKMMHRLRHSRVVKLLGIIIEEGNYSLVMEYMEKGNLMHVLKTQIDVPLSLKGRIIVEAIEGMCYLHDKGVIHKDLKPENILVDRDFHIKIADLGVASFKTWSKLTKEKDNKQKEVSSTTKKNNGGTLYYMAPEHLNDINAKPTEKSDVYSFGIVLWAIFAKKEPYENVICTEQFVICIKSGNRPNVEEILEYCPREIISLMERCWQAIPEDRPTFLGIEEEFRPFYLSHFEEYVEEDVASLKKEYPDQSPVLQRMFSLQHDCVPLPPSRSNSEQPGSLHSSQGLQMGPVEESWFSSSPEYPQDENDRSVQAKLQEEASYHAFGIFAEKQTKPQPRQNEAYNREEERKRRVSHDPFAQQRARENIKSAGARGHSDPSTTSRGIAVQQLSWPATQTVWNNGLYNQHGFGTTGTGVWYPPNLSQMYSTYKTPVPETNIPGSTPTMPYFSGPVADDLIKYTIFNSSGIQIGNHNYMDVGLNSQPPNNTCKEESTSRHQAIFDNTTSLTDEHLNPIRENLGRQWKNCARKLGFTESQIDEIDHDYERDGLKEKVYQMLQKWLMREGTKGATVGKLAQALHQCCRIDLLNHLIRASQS

[3] = molecular target: T2, GST-tagged mRIPK1 lacking both death domain and RHIM motif (∆DD/∆RHIM, mRIPK1-1-500 aa) (mouse) (UniProt Q60855)
T2 sequence: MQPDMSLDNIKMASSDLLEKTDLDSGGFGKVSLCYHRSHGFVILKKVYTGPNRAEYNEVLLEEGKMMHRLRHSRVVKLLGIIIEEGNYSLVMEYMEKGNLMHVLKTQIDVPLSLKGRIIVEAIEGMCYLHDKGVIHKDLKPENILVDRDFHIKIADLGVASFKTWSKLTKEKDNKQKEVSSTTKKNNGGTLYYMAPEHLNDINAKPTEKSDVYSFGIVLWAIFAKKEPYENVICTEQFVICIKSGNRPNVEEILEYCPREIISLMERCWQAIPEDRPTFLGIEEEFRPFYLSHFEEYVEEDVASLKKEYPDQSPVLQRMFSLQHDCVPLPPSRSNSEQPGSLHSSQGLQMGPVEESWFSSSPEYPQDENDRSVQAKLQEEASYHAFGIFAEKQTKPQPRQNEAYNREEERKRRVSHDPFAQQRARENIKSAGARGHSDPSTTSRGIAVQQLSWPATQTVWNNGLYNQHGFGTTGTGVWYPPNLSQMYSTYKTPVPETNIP

[4] = molecular target: T3, GST-tagged mRIPK1 lacking the death domain (∆DD, mRIPK1-1-588 aa) (mouse) (UniProt Q60855)
T3 sequence: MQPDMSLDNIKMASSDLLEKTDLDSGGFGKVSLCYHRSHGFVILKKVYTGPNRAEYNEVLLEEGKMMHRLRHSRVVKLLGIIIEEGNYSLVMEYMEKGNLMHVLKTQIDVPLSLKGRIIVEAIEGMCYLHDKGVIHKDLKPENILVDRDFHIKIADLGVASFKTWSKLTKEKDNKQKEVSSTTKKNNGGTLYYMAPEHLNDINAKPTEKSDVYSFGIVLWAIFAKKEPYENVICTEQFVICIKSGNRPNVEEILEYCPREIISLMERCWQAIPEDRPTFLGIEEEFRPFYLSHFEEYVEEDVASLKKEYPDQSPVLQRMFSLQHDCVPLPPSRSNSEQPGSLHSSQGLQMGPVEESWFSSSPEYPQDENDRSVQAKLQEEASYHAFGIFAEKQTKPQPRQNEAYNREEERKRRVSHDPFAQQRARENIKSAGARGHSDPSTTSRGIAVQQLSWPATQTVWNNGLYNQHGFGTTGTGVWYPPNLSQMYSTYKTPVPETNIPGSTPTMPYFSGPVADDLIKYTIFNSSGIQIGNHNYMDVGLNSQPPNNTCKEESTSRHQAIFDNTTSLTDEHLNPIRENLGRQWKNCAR

- binding [1]: binds
- binding [2]: binds
Substance: 3xFLAG-PRMT5 (from UniProt O14744 1-637)
- binding [3]: binds
- binding [4]: binds
